± gives the uncertainty stated by the source. Many of these values have a large error.
Test: self-splicing fitness, log relative to wild type (ln ratio); higher = more splicing; Tetrahymena group I intron in knt gene, E. coli kanamycin selection, DiMSum; sequences stand for … in CUCUCU…GGAGGGAAAAGUUAUCAGGCAUGCACCUGGUAGCUAGUCUUUAAACCAAUAGAUUGCAUCGGUUUAAAAGGCAAGACCGUCAAAUUGCGGGAAAGGGGUCAACAGCCGUUCAGUACCAAGUCUCAGGGGAAACUUUGAGAUGGCCUUGCAAAGGGUAUGGUAAUAAGCUGACGGACAUGGUCCUAACCACGCAGCCAAGUCCUAAGUCAACAGAUCUUCUGUUGAUAUGGAUGCAGUUCACAGACUAAAUGUCGGUCGGGGAAGAUGUAUUCUUCUCAUAAGAUAUAGUCGGACCUCUCCUUAAUGGGAGCUAGCGGAUGAAGUGAUGCAACACUGGAGCCGCUGGGAACUAAUUUGUAUGCGAAAGUAUAUUGAUUAGUUUUGGAGUACUCGUGGUCG
Summary of the method: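 Pooled colonies went to amplicon sequencing on an Illumina HiSeq 2500 after six replicate transformations. The plates were LB agar with 100 μg/mL carbenicillin, 50 μM IPTG and 0.2% rhamnose, with or without 25 μg/mL kanamycin, incubated overnight at 37°C or 30°C. The E. coli BL21(DE3) library had all eight P1ex-region intron nucleotides randomised, the intron placed in the knt kanamycin-resistance gene on pET-22b(+). DiMSum fitness is the error-weighted combination of replicate fold changes, kanamycin against none, normalised to wild type.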

Sequence | self-splicing fitness (ln) (37 °C) | self-splicing fitness (ln) (30 °C)
AUGGAGCAAUAUUACGCGAG | -0.466 ± 0.56 | –
GCCCAGCAAUAUUACGCCGC | -2.39 ± 1.1 | -3.11 ± 0.74
CCGAAGCAAUAUUACGACGC | -2.98 ± 0.74 | -3.57 ± 0.6
CUUAAGCAAUAUUACGGAGC | – | -4.21 ± 0.53
CUUUAGCAAUAUUACGCCGG | -1.22 ± 0.19 | -1.74 ± 0.16
GGGCAGCAAUAUUACGGGGU | – | -4.01 ± 0.74
GGGAAGCAAUAUUACGAUGG | -2.76 ± 0.54 | -4.83 ± 0.72
CACGAGCAAUAUUACGCCCC | -1.8 ± 0.81 | -4.32 ± 0.72
CAAGAGCAAUAUUACGUUUU | -2.29 ± 0.15 | -3.35 ± 0.16
CUCAAGCAAUAUUACGGUCA | -2.35 ± 0.2 | -3.19 ± 0.2
UGGGAGCAAUAUUACGCAAG | -2.83 ± 0.76 | –
UGGUAGCAAUAUUACGCACG | 0.218 ± 0.51 | –
GCGUAGCAAUAUUACGCGGA | -1.33 ± 0.87 | –
AUUGAGCAAUAUUACGGGUA | – | -4.18 ± 0.51
ACAUAGCAAUAUUACGAAGU | -2.85 ± 0.23 | -2.67 ± 0.21
CUAUAGCAAUAUUACGGAGC | – | -2.36 ± 0.82
AAUUAGCAAUAUUACGGAAA | -1.72 ± 0.49 | -1.83 ± 0.29
UUAUAGCAAUAUUACGCCGU | -2.63 ± 1.1 | -2.09 ± 0.82
AUCGAGCAAUAUUACGACCC | -1.2 ± 0.73 | -2.17 ± 0.61

Sequence | self-splicing fitness (ln) (37 °C) | self-splicing fitness (ln) (30 °C)
CAGGAGCAAUAUUACGCGCC | – | -4.12 ± 0.53
CGGGAGCAAUAUUACGGUUG | -2.63 ± 0.52 | –
CUCUAGCAAUAUUACGUUCC | -1.29 ± 0.51 | -2.29 ± 0.64
GCCUAGCAAUAUUACGAAUA | -1.84 ± 0.5 | –
GGUCAGCAAUAUUACGCGAC | 0.694 ± 0.65 | –
AUACAGCAAUAUUACGAGCC | -2.77 ± 0.55 | –
GGGUAGCAAUAUUACGGUCC | -0.66 ± 0.5 | –
CACGAGCAAUAUUACGAUCU | – | -5.38 ± 1
CCGGAGCAAUAUUACGCCCC | -1.62 ± 1.1 | –
CUGUAGCAAUAUUACGGCCC | – | -3.89 ± 0.52
CUCUAGCAAUAUUACGUCAU | -4.18 ± 0.39 | -2.83 ± 0.4
AUGGAGCAAUAUUACGUACU | -0.491 ± 0.18 | -0.848 ± 0.16
CUGUAGCAAUAUUACGAAGA | – | -4.67 ± 1
UUUGAGCAAUAUUACGAAAC | -0.693 ± 1.4 | -2.84 ± 0.75
GGUCAGCAAUAUUACGGGCC | -2.52 ± 0.77 | -4.2 ± 0.6
CAGGAGCAAUAUUACGGCAC | -2.63 ± 1.1 | -3.26 ± 0.77
CUCGAGCAAUAUUACGAACC | -2.41 ± 0.79 | -2.4 ± 0.57
GUGCAGCAAUAUUACGCACC | – | -3.07 ± 0.79
AGAAAGCAAUAUUACGUCUC | -0.778 ± 1.4 | –

Sequence | self-splicing fitness (ln) (37 °C) | self-splicing fitness (ln) (30 °C)
CGGUAGCAAUAUUACGGAUA | – | -5.56 ± 1
CGCUAGCAAUAUUACGCCGC | -1.96 ± 0.5 | –
AUGAAGCAAUAUUACGGAAG | -0.408 ± 0.16 | -1.17 ± 0.1
AUAGAGCAAUAUUACGCCGC | – | -2.59 ± 0.55
GGUAAGCAAUAUUACGUCGG | -2.36 ± 0.5 | -3.15 ± 0.62
CCCGAGCAAUAUUACGCCAA | -2.12 ± 0.26 | -3.35 ± 0.31
UCUAAGCAAUAUUACGUACC | – | -3.08 ± 0.78
UUCGAGCAAUAUUACGUUCA | -1.15 ± 0.13 | -1.99 ± 0.13
GGGGAGCAAUAUUACGCUAC | -3.3 ± 1 | -2.94 ± 1.1
UUCGAGCAAUAUUACGAAAC | – | -2.58 ± 0.8
GUGUAGCAAUAUUACGGUGA | -0.916 ± 0.14 | -1.45 ± 0.11
CAGAAGCAAUAUUACGCACA | -0.438 ± 0.087 | -1.56 ± 0.077
UUGGAGCAAUAUUACGUACA | – | -3.32 ± 0.62
CUUGAGCAAUAUUACGUAAC | -1.62 ± 1.1 | –
CUCCAGCAAUAUUACGCCCA | -2.94 ± 0.76 | -3.06 ± 1.1
AGAGAGCAAUAUUACGUCAA | – | -2.29 ± 0.5
GUCGAGCAAUAUUACGCGAA | 0.0361 ± 0.17 | -1.39 ± 0.17
AUGCAGCAAUAUUACGGAAC | – | -4.99 ± 0.58
GCGGAGCAAUAUUACGCCCG | -1.29 ± 1.2 | –

Looked up one by one from the list above, four records:
Sequence | self-splicing fitness (ln) (37 °C) | self-splicing fitness (ln) (30 °C)
AUGAAGCAAUAUUACGGAAG | -0.408 ± 0.16 | -1.17 ± 0.1
UUCGAGCAAUAUUACGAAAC | – | -2.58 ± 0.8
GUCGAGCAAUAUUACGCGAA | 0.0361 ± 0.17 | -1.39 ± 0.17
CUUGAGCAAUAUUACGUAAC | -1.62 ± 1.1 | –

— the supplement of paper PMC7877785
